PubChem BioAssay AID493246 – Drosophila RNAi Screening Center, 2011

Purpose: 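Genes fly cells need to grow and stay alive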 (primary screen)
Cell system: Drosophila Kc and S2R+ cells
Reagents: long dsRNA against Drosophila genes
Measured: 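Cell number per well after knock-down, printed as raw plate values; calls were based on per-plate z-scores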
Scale: Kc cell number and S2R+ cell number: higher = more cells remaining
Hit rule: 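Counted as a hit if cell number falls by a z-score of at least 3 within its plate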
The screen tested about 21,000 reagents; this is a random part of those with a known target gene and a result. In the full data, 429 (2%) were called active. 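Values are raw and not normalised between plates; calls rest on per-plate z-scores that were not deposited.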 Names joined by + are all predicted targets of the reagent. The record does not give: the amount of reagent, the time to read-out.

| gene | amplicon | Kc cell number, rep 1 | Kc cell number, rep 2 | S2R+ cell number, rep 1 | S2R+ cell number, rep 2 | Call |
| --- | --- | --- | --- | --- | --- | --- |
| mst | DRSC20582 | 1.54e6 | 1.48e6 | 1.05e6 | 1.17e6 | inactive |
| E(spl)m6-BFM | DRSC16993 | 1.43e6 | 1.49e6 | 1.03e6 | 1.11e6 | inactive |
| CG30480 | DRSC06736 | 1.57e6 | 1.66e6 | 1.41e6 | 1.47e6 | inactive |
| Vha14-1 | DRSC07571 | 1.53e6 | 1.62e6 | 1.24e6 | 1.42e6 | inactive |
| CG42694 | DRSC03955 | 5.34e5 | – | 8.17e5 | – | inactive |
| Ugt36D1 | DRSC02600 | 1.45e6 | 1.54e6 | 1.31e6 | 1.22e6 | inactive |
| CG7049 | DRSC08587 | 1.40e6 | 1.47e6 | 1.22e6 | 1.22e6 | inactive |
| CG13713 | DRSC08322 | 1.70e6 | 1.72e6 | 1.29e6 | 1.23e6 | inactive |
| Ibf1 | DRSC16419 | 1.65e6 | 1.75e6 | 1.36e6 | 1.56e6 | inactive |
| CG8891 | DRSC03120 | 1.61e6 | 1.56e6 | 1.18e6 | 1.35e6 | inactive |
| ntc | DRSC08166 | 1.38e6 | 1.48e6 | 1.30e6 | 1.22e6 | inactive |
| CG7720 | DRSC16306 | 1.65e6 | 1.67e6 | 1.21e6 | 1.29e6 | inactive |
| Smyd4-1 | DRSC06785 | 1.37e6 | 1.60e6 | 1.03e6 | 1.07e6 | inactive |
| Pura | DRSC08891 | 1.52e6 | 1.58e6 | 1.14e6 | 1.30e6 | inactive |
| Pura | DRSC10862 | 1.46e6 | 1.31e6 | 1.11e6 | 1.16e6 | inactive |
| Pura | DRSC10864 | 1.51e6 | 1.38e6 | 1.13e6 | 1.21e6 | inactive |
| Pura | DRSC10865 | 1.27e6 | 1.43e6 | 1.09e6 | 1.08e6 | inactive |
| Pura | DRSC10866 | 1.39e6 | 1.34e6 | 1.15e6 | 1.22e6 | inactive |
| CG3008 | DRSC00560 | 1.50e6 | 1.41e6 | 1.13e6 | 1.25e6 | inactive |
| Mnn1 | DRSC03368 | 1.60e6 | 1.51e6 | 1.22e6 | 1.42e6 | inactive |
| Prx4 | DRSC08668 | 1.54e6 | 1.43e6 | 1.16e6 | 1.39e6 | inactive |
| CG33768 | DRSC11715 | 1.65e6 | 1.58e6 | 1.38e6 | 1.51e6 | inactive |
| mRpS10 | DRSC15557 | 1.03e6 | 1.06e6 | 1.10e6 | 1.23e6 | inactive |
| rgr | DRSC06487 | 1.40e6 | 1.54e6 | 1.11e6 | 1.09e6 | inactive |
| rgr | DRSC07229 | 1.30e6 | 1.42e6 | 1.11e6 | 1.18e6 | inactive |
| Itgbn | DRSC03493 | 1.69e6 | 1.97e6 | 1.48e6 | 5.58e5 | inactive |

Next part (8 carried over from the part before).
| gene | amplicon | Kc cell number, rep 1 | Kc cell number, rep 2 | S2R+ cell number, rep 1 | S2R+ cell number, rep 2 | Call |
| --- | --- | --- | --- | --- | --- | --- |
| CG3008 | DRSC00560 | 1.50e6 | 1.41e6 | 1.13e6 | 1.25e6 | inactive |
| Mnn1 | DRSC03368 | 1.60e6 | 1.51e6 | 1.22e6 | 1.42e6 | inactive |
| Prx4 | DRSC08668 | 1.54e6 | 1.43e6 | 1.16e6 | 1.39e6 | inactive |
| CG33768 | DRSC11715 | 1.65e6 | 1.58e6 | 1.38e6 | 1.51e6 | inactive |
| mRpS10 | DRSC15557 | 1.03e6 | 1.06e6 | 1.10e6 | 1.23e6 | inactive |
| rgr | DRSC06487 | 1.40e6 | 1.54e6 | 1.11e6 | 1.09e6 | inactive |
| rgr | DRSC07229 | 1.30e6 | 1.42e6 | 1.11e6 | 1.18e6 | inactive |
| Itgbn | DRSC03493 | 1.69e6 | 1.97e6 | 1.48e6 | 5.58e5 | inactive |
| to | DRSC17086 | 1.84e6 | 1.70e6 | 1.12e6 | 1.23e6 | inactive |
| E(z) | DRSC11147 | 1.30e6 | 1.38e6 | 1.28e6 | 1.21e6 | inactive |
| Dop1R2 | DRSC13958 | 1.24e6 | 1.55e6 | 1.11e6 | 1.16e6 | inactive |
| Dop1R2 | DRSC15379 | 1.43e6 | 1.45e6 | 9.56e5 | 1.08e6 | inactive |
| CG17687 | DRSC10279 | 1.21e6 | 1.26e6 | 1.20e6 | 1.31e6 | inactive |
| CG7420 | DRSC00704 | 1.42e6 | 1.41e6 | 9.88e5 | 1.02e6 | inactive |
| CG15432 | DRSC00447 | 1.49e6 | 1.48e6 | 1.06e6 | 1.24e6 | inactive |
| Lnk | DRSC16729 | 5.06e5 | – | 7.45e5 | – | inactive |
| Cdc37 | DRSC08648 | 1.50e6 | 6.65e5 | 1.09e6 | 1.15e6 | inactive |
| Or19a | DRSC20684 | 1.51e6 | 1.51e6 | 1.04e6 | 1.16e6 | inactive |
| RpL10Aa | DRSC15518 | 1.28e6 | 1.34e6 | 7.41e5 | 8.93e5 | inactive |
| Gen | DRSC09679 | 1.42e6 | 1.46e6 | 1.36e6 | 1.29e6 | inactive |
| Bbd | DRSC06709 | 1.68e6 | 1.61e6 | 1.21e6 | 1.41e6 | inactive |
| CG34396 | DRSC04245 | 1.66e6 | 1.69e6 | 1.17e6 | 4.41e5 | inactive |
| CG34396 | DRSC04246 | 1.48e6 | 1.64e6 | 1.31e6 | 5.59e5 | inactive |
| nSMase | DRSC08237 | 1.43e6 | 1.50e6 | 1.25e6 | 1.19e6 | inactive |
| cyp33 + CG34194 | DRSC05666 | 4.30e5 | – | 6.96e5 | – | inactive |
| Mhcl | DRSC13130 | 1.51e6 | 1.66e6 | 1.10e6 | 1.15e6 | inactive |
| Mhcl | DRSC14216 | 1.32e6 | 1.48e6 | 1.22e6 | 1.34e6 | inactive |
| Mhcl | DRSC16753 | 1.20e6 | 1.28e6 | 1.23e6 | 1.38e6 | inactive |
| CG2021 | DRSC08546 | 1.55e6 | 1.45e6 | 9.95e5 | 1.31e6 | inactive |
| prel | DRSC07271 | 1.45e6 | 1.47e6 | 1.17e6 | 1.19e6 | inactive |
| CG5111 | DRSC15717 | 1.56e6 | 1.49e6 | 9.60e5 | 1.07e6 | inactive |
| CG5003 | DRSC15694 | 5.40e5 | – | 7.88e5 | – | inactive |
| puml | DRSC06793 | 1.50e6 | 1.68e6 | 1.21e6 | 1.38e6 | inactive |
| rasp | DRSC08191 | 1.47e6 | 1.45e6 | 1.10e6 | 1.17e6 | inactive |
| CG10809 | DRSC09802 | 1.59e6 | 1.51e6 | 1.45e6 | 1.50e6 | inactive |
| Mkp + CG34140 | DRSC08585 | 1.41e6 | 1.40e6 | 1.23e6 | 1.27e6 | inactive |
| jumu | DRSC16651 | 1.26e6 | 1.25e6 | 1.13e6 | 1.16e6 | inactive |
| Gbeta5 | DRSC17754 | 1.63e6 | 1.58e6 | 1.05e6 | 1.15e6 | inactive |
| Jon65Aiii | DRSC10649 | 1.37e6 | 1.48e6 | 1.30e6 | 1.15e6 | inactive |
| CG5149 | DRSC02819 | 1.34e6 | 1.39e6 | 5.43e5 | 7.64e5 | inactive |
| MFS12 | DRSC07268 | 1.35e6 | 1.38e6 | 1.10e6 | 1.03e6 | inactive |
